Measured data: PubChem BioAssay AID652272 (Drosophila RNAi Screening Center, 2013)
Test: 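Genes whose knock-down decreases or increases Hedgehog reporter output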 (primary screen). Cells: Drosophila clone 8 (Cl8) cells. Knock-down reagent: long dsRNA against Drosophila genes. Measured: 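Plate reader light from a firefly reporter under a ptc promoter fragment that responds to Hedgehog, with Renilla light as transfection reference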. Reading the numbers: firefly Hh reporter signal: higher = more ptc reporter light; Renilla reference signal: higher = more Renilla control light. Active means: 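Hit when the z-score averaged over two replicates is under -2 or over +3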. Meaning of the calls: active = hit: reporter lowered or raised; inactive = not a hit.
The deposit covers about 21,000 reagents; below is an unselected part of those with a known target gene and a result. Of all reagents, 503 (2.4%) are marked active. 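Raw plate light values, not normalised; calls rest on replicate z-scores that were not deposited; hits include reporter decreases as well as increases.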 Names joined by + are all predicted targets of the reagent. The record does not give: the amount of reagent, the time to read-out.

| firefly Hh reporter signal, replicate 1 | firefly Hh reporter signal, replicate 2 | firefly Hh reporter signal, replicate 3 | Renilla reference signal, replicate 1 | Renilla reference signal, replicate 2 | activity call | gene knocked down | DRSC id |
| --- | --- | --- | --- | --- | --- | --- | --- |
| 22452 | 16132 | – | 1393 | 1008 | active | RpL17 (Ribosomal protein L17) | DRSC18293 |
| 87825 | 1.02e5 | – | 2144 | 2667 | inactive | CG4270 | DRSC00648 |
| 49562 | 42982 | – | 2624 | 2274 | inactive | PGAP2 (Post-GPI attachment to proteins 2) | DRSC00632 |
| 1.15e5 | 67120 | – | 3109 | 5538 | inactive | CG14763 | DRSC06497 |
| 1.25e5 | 1.28e5 | – | 2967 | 2993 | inactive | Peritrophin-A (Peritrophin A) | DRSC20570 |
| 69980 | 28067 | – | 1546 | 2464 | inactive | CG34386 | DRSC06467 |
| 63696 | 83204 | – | 1761 | 5953 | inactive | CG34386 | DRSC06468 |
| 74490 | 41732 | – | 3345 | 2090 | inactive | Sgf29 (SAGA-associated factor 29kDa) | DRSC04076 |
| 1.05e5 | 1.11e5 | – | 3968 | 3318 | inactive | mfrn (mitoferrin) | DRSC15687 |
| 78377 | 74716 | – | 4529 | 3738 | inactive | dbe (dribble) | DRSC00811 |
| 1.07e5 | 56893 | – | 2624 | 1613 | inactive | CG31926 | DRSC00295 |
| 1.04e5 | 63794 | – | 3531 | 5082 | inactive | Drsl6 (Drosomycin-like 6) | DRSC08161 |
| 1.75e5 | 1.53e5 | – | 3442 | 4944 | inactive | mRpL16 (mitochondrial ribosomal protein L16) | DRSC18550 |
| 4.96e5 | 89985 | – | 3776 | 3776 | inactive | sage (salivary gland-expressed bHLH) | DRSC14580 |
| 37349 | 40896 | – | 1392 | 1280 | inactive | btsz (bitesize) | DRSC14982 |
| 50819 | 35252 | – | 1857 | 1335 | inactive | btsz (bitesize) | DRSC15222 |
| 84953 | 92896 | – | 3350 | 3057 | inactive | btsz (bitesize) | DRSC15320 |
| 92166 | 76611 | – | 3041 | 2109 | inactive | btsz (bitesize) | DRSC16231 |
| 89316 | 30859 | 45716 | 4037 | 4409 | inactive | Tsen54 (tRNA splicing endonuclease subunit 54) | DRSC10527 |

Next part, starting with the last 7 of the part before.
| firefly Hh reporter signal, replicate 1 | firefly Hh reporter signal, replicate 2 | firefly Hh reporter signal, replicate 3 | Renilla reference signal, replicate 1 | Renilla reference signal, replicate 2 | activity call | gene knocked down | DRSC id |
| --- | --- | --- | --- | --- | --- | --- | --- |
| 1.75e5 | 1.53e5 | – | 3442 | 4944 | inactive | mRpL16 (mitochondrial ribosomal protein L16) | DRSC18550 |
| 4.96e5 | 89985 | – | 3776 | 3776 | inactive | sage (salivary gland-expressed bHLH) | DRSC14580 |
| 37349 | 40896 | – | 1392 | 1280 | inactive | btsz (bitesize) | DRSC14982 |
| 50819 | 35252 | – | 1857 | 1335 | inactive | btsz (bitesize) | DRSC15222 |
| 84953 | 92896 | – | 3350 | 3057 | inactive | btsz (bitesize) | DRSC15320 |
| 92166 | 76611 | – | 3041 | 2109 | inactive | btsz (bitesize) | DRSC16231 |
| 89316 | 30859 | 45716 | 4037 | 4409 | inactive | Tsen54 (tRNA splicing endonuclease subunit 54) | DRSC10527 |
| 50453 | 34963 | 59499 | 4547 | 3523 | inactive | Cpr67Fb (Cuticular protein 67Fb) | DRSC10314 |
| 86748 | 48082 | – | 4016 | 1914 | inactive | CG42540 | DRSC08327 |
| 48197 | 34153 | – | 5197 | 2674 | inactive | CG42540 | DRSC08328 |
| 9893 | 7576 | – | 2072 | 731 | inactive | CG42540 | DRSC08593 |
| 4.83e5 | 1.06e5 | – | 23633 | 3312 | inactive | wake (wide awake) | DRSC16148 |
| 4.40e5 | 1.22e5 | – | 21601 | 3773 | inactive | wake (wide awake) | DRSC16149 |
| 85113 | – | – | 1435 | 2823 | inactive | DCX-EMAP | DRSC10012 |
| 46768 | – | – | 723 | 1387 | inactive | DCX-EMAP | DRSC10013 |
| 94589 | 86508 | – | 2028 | 1952 | inactive | CG3164 | DRSC00572 |
| 92359 | 2.85e5 | – | 3128 | 10330 | inactive | CG15210 | DRSC19656 |
| 78765 | 2.81e5 | – | 2300 | 9733 | inactive | spidey | DRSC17932 |
| 5.60e5 | 1.40e5 | – | 24727 | 3696 | inactive | CG14325 | DRSC14804 |
| 92250 | 1.68e5 | – | 1401 | 3735 | inactive | CG10562 | DRSC14257 |
| 88038 | 90586 | – | 2901 | 5174 | inactive | eg (eagle) | DRSC11885 |
| 1.46e5 | 71340 | – | 9316 | 3408 | active | Pp2B-14D (Protein phosphatase 2B at 14D) | DRSC20270 |
| 56981 | 69621 | – | 6057 | 5572 | inactive | CG42307 + mus312 | DRSC11008 |
| 1.16e5 | 63876 | – | 2899 | 5368 | inactive | CG6508 | DRSC02963 |
| 89264 | 4.08e5 | 42448 | 3517 | 24378 | inactive | CG30412 | DRSC04564 |
| 95859 | 58864 | – | 3475 | 1504 | inactive | ro (rough) | DRSC17046 |
| 1.13e5 | 83056 | – | 1600 | 6203 | inactive | CG13231 | DRSC06351 |
| 1.05e5 | 1.12e5 | – | 3859 | 3152 | inactive | Cpr78Cb (Cuticular protein 78Cb) | DRSC11847 |
| 97043 | 64161 | – | 3907 | 2745 | inactive | SMC2 (Structural maintenance of chromosomes 2) | DRSC07544 |
| 1.56e5 | 93424 | – | 3850 | 7109 | inactive | CG4382 | DRSC02743 |
| 1.54e5 | 7.92e5 | 1.13e5 | 3573 | 41344 | inactive | CG12237 | DRSC19449 |
| 1.17e5 | 97876 | – | 4384 | 2851 | inactive | CG7567 | DRSC16258 |
| 81844 | 1.56e5 | – | 3373 | 5170 | inactive | Apc (APC-like) | DRSC14114 |
| 1.36e5 | 90823 | – | 5675 | 3851 | inactive | bcd (bicoid) | DRSC12624 |
| 1.15e5 | 2.05e5 | – | 2908 | 9290 | inactive | CG33465 | DRSC05587 |
| 74436 | 64229 | – | 3081 | 2278 | inactive | Tnpo (Transportin) | DRSC11309 |
| 62915 | 38210 | – | 2182 | 2658 | inactive | p120ctn (p120 catenin) | DRSC07753 |
| 75350 | 75034 | – | 1667 | 1712 | inactive | cm + Inx7 | DRSC18753 |
| 96041 | – | – | 3786 | 2747 | inactive | CG6052 | DRSC10574 |
| 50690 | 2.16e5 | – | 12086 | 4922 | inactive | Uck (Uridine-cytidine kinase) | DRSC13661 |
| 5.11e5 | 74720 | – | 25803 | 2716 | inactive | Uck (Uridine-cytidine kinase) | DRSC16028 |
| 66967 | 43850 | – | 1936 | 4074 | inactive | mtDNA-helicase (mitochondrial DNA helicase) | DRSC02912 |
| 63687 | 1.31e5 | – | 2121 | 5739 | inactive | CG14627 | DRSC18630 |
| 36102 | 44224 | 82880 | 2986 | 5361 | inactive | PGRP-LA (Peptidoglycan recognition protein LA) | DRSC10327 |
| 37853 | 53238 | 73560 | 4763 | 6343 | inactive | PGRP-LA (Peptidoglycan recognition protein LA) | DRSC10414 |
